Test results reported in PubChem BioAssay AID624297 (National Center for Advancing Translational Sciences (NCATS), 2012).
The whole screen tested about 340,000 compounds, of which about 6,200 (1.8%) were called active. The inconclusive results got no clear call from the source; some entries with a clear call stand among them for comparison. The call rests on the fitted dose curve; in most records, active means well fitted activation curve with a large enough effect; inconclusive means small, poorly fitted or top-dose-only effect; inactive means no such curve, though single readings can be large or run the other way. A potency beside an inconclusive call is a rough fit, not a confirmed value.
Potency means the concentration at half of the fitted maximal effect.

Experiment: A quantitative high throughput screen for small molecules that induce DNA re-replication in SW480 colon adenocarcinoma cells. Further: nearly all actives have a fitted effect of over 55% in size.
Settings: Hoechst DNA content imaging, 48 h; series mostly up to 46.1 µM
In short: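 DNA re-replication was detected as more nuclei of elevated Hoechst intensity after 48 hr exposure to compound (23 nL pinned per well of 250 cells).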
In the case of `Cc1cc(C)nc(NC(=O)c2ccc(Cl)c([N+](=O)[O-])c2)n1`, the Potency is reported as inconclusive: 10.3 µM [activator, partial curve, poor fit]. With `O=C(CCn1c(=S)[nH]c2ccccc2c1=O)NCCc1ccccc1` the Potency was inconclusive: 29.1 µM [activator, single point]. For `Cc1c(C(=O)N2CCCCC2)c(S(=O)(=O)Nc2ccc(F)cc2F)c(C)n1C`, the Potency was “inactive”. With `COC(=O)C1=NNC2(C)C(=O)N(c3ccc(C)cc3)C(=O)C12` (stereo unspecified) the Potency was “inactive”. With `CCOC(=O)c1sc(N/N=C/c2ccccc2)nc1C` the Potency was inconclusive: 29.1 µM [activator, single point]. With `COc1cc(C=C(c2nc3ccccc3s2)c2nc3ccccc3s2)ccc1O` the Potency was inconclusive: 13 µM [activator, partial curve]. In the case of `Cc1nc2sc3c(c2c(=O)[nH]1)CCCCC3`, the Potency is reported as inconclusive: 29.1 µM [activator, single point]. For `O=C(NCCCN1CCCC1=O)c1ccc([N+](=O)[O-])s1`, the Potency was inconclusive: 16.4 µM [activator, single point]. With `CC12CN3CC(C)(CN(C1)C3c1ccc3c(c1)OCO3)C2=O` (stereo unspecified) the Potency was “inactive”. In the case of `CC(=O)c1sc(=S)n(-c2ccc(Cl)cc2)c1C`, the Potency is reported as inconclusive: 3.26 µM [activator, single point]. With `CCCCN(c1nc2ccccc2nc1Cl)S(=O)(=O)c1ccc(C)cc1` the Potency was “inactive”. For `COc1ccc(CCCc2n[nH]c(=S)o2)cc1`, the Potency was inconclusive: 1.16 µM [activator, single point]. For `CCOC(=O)C1=C(COC(=O)CCC(=O)c2ccc(C)cc2)NC(=O)NC1C` (stereo unspecified), the Potency was “inactive”. In the case of `O=S(=O)(c1ccccc1)c1nc(-c2ccco2)oc1N1CCCCC1`, the Potency is reported as inconclusive: 29.1 µM [activator, single point]. For `Cn1c(=N)c(S(=O)(=O)c2ccc(F)cc2)cc2c(=O)n3ccccc3nc21`, the Potency was inconclusive: 13 µM [activator, partial curve]. In the case of `COc1ccc(-c2nnc(N3CCCCC3)c3ccccc23)cc1`, the Potency is reported as “inactive”. With `Cc1ccc(N2NC(=O)/C(=C/c3ccc(-c4ccc(Cl)c(C(=O)O)c4)o3)C2=O)cc1` the Potency was “inactive”. With `CC(C)c1ccc(NC(=O)CSc2ncccc2C(=O)Oc2cccc([N+](=O)[O-])c2)cc1` the Potency was inconclusive: 18.4 µM [activator, single point]. For `COc1cc(CC(=O)Nc2cccc(S(=O)(=O)N(C)c3ccccc3)c2)cc(OC)c1OC`, the Potency was “inactive”. In the case of `CN(C)CCN(C(=O)c1ccco1)c1nc2cc3c(cc2s1)OCCO3`, the Potency is reported as inconclusive: 20.6 µM [activator, single point]. In the case of `CCSc1nsc(NC(=O)Nc2ccccc2F)n1`, the Potency is reported as “inactive”. With `COc1ccc(OC)c(/C=C/c2nc3ccccc3[nH]c2=O)c1` the Potency was active: 20.6 µM. In the case of `COc1ccc(C(=O)/C=C/c2ccc(OC)c(COc3ccc(F)cc3)c2)cc1`, the Potency is reported as inconclusive: 29.1 µM [activator, single point]. With `Cc1c(C(=O)N2CCN(Cc3cccs3)CC2)oc2ccccc12` the Potency was “inactive”. In the case of `Cc1cccc(C)c1Nc1nnc(SCc2cc([N+](=O)[O-])cc3c2OCOC3)s1`, the Potency is reported as inconclusive: 20.6 µM [activator, single point]. In the case of `COC(=O)c1c(C)n(-c2ccc(C)cc2)c2ccc(O)cc12`, the Potency is reported as inconclusive: 31.6 µM [activator, single point]. For `NS(=O)(=O)c1ccc(-c2ccc(/C=N/Nc3ccc(C(=O)O)cc3)o2)cc1`, the Potency was inconclusive: 23.1 µM [activator, single point]. For `COC(=O)NC(NC(=S)Nc1cccc(C)c1)C(Cl)(Cl)Cl` (stereo unspecified), the Potency was “inactive”. For `CCCN=C1N(CC)C[C@@H]2[C@@H]3C(=O)N(C)C(=O)[C@@H]3[C@](CC)(C(=O)OC)N12`, the Potency was inconclusive: 25.9 µM [activator, single point]. For `CCOc1cc2c(cc1OCC)C(c1ccc(C(=O)O)cc1)NCC2` (stereo unspecified), the Potency was “inactive”. With `COc1ccccc1CCC(=O)OCC(=O)Nc1cccc(S(=O)(=O)N2CCOCC2)c1` the Potency was inconclusive: 7.31 µM [activator, partial curve, poor fit]. For `O=C(Cc1ccccc1[N+](=O)[O-])NNC(=O)c1cccs1`, the Potency was “inactive”. With `CCSc1nnc(-c2cnn(-c3ccccc3)c2-n2cccc2)n1C` the Potency was “inactive”. For `CCCNC(=O)c1ccccc1NC(=O)c1ccccc1N(C)S(=O)(=O)c1ccc(C)cc1`, the Potency was inconclusive: 25.9 µM [activator, single point]. In the case of `COc1ccc(S(=O)(=O)Nc2cccc(SC)c2)cc1OC`, the Potency is reported as “inactive”. In the case of `COC(=O)Cn1c(=NC(=O)c2nc3ccccc3s2)sc2cc(S(N)(=O)=O)ccc21`, the Potency is reported as “inactive”. In the case of `Cc1ccc(C)c(NC(=O)c2cnc3n(c2=O)CCS3)c1`, the Potency is reported as inconclusive: 29.1 µM [activator, partial curve, poor fit]. In the case of `O=[N+]([O-])c1ccc(O)c(/C=N/Nc2ccc(Cl)nn2)c1`, the Potency is reported as inconclusive: 0.112 µM [activator, full curve, poor fit]. In the case of `Nc1c(C(=O)Nc2ccccc2F)sc2nc(-c3ccco3)ccc12`, the Potency is reported as inconclusive: 29.1 µM [activator, single point]. In the case of `Cc1ccc2nc(SCC(=O)N(CC(C)C)c3c(N)n(Cc4ccccc4)c(=O)[nH]c3=O)[nH]c2c1`, the Potency is reported as “inactive”. For `CCOC(=O)c1ccc(Nc2nc(-c3cccnc3)nc3ccccc23)cc1`, the Potency was inconclusive: 16.4 µM [activator, single point]. With `Cc1ccc(/C=N/NC(=O)c2cc3c(ccc4ccccc43)o2)o1` the Potency was inconclusive: 11.6 µM [activator, partial curve]. For `Cc1nn(-c2ncccn2)c2c1C(=O)CC(C)(C)C2Br` (stereo unspecified), the Potency was inconclusive: 16.4 µM [activator, partial curve, poor fit]. For `COc1ccc(OCc2cc(C(=O)NCCCc3ccccc3)no2)c(Cl)c1`, the Potency was inconclusive: 23.1 µM [activator, partial curve, poor fit]. In the case of `C=CCOC(=O)c1cn(CC)c2nc(C)ccc2c1=O`, the Potency is reported as “inactive”. For `COC(=O)C1=C(C)NC2=C(C(=O)CC(C)(C)C2)C1c1cn(Cc2ccc(Br)cc2)nc1-c1ccccc1` (stereo unspecified), the Potency was inconclusive: 35.5 µM [activator, partial curve, poor fit].
